Measured values published in patent publication US20080014186A1, “Hla-A24 or Hla-A2 Binding Peptides of Parathyroid Hormone-Related Protein” (GREEN PEPTIDE CO., LTD., priority 2004, published 2008).
Part of at least one peptide drawing is inferred or uncertain, most often the ends. Ends that are not written are not given here.

System: PBMCs of HLA-A24^+ healthy donors and prostate cancer patients
Experiment: Assay for peptide-specific CTLs in PBMCs (IFN-γ ELISA, peptide-pulsed C1R-A24 cells)
Type: cell-based, human
Protocol: To investigate the immunogenicity of these four PTHrP peptides, the PBMCs of 10 HLA-A24^+ healthy donors and 10 HLA-A24^+ prostate cancer patients were stimulated with each of the four PTHrP peptides and were examined for their IFN-γ production in response to C1R-A24 cells, which were pre-pulsed with either a corresponding PTHrP peptide or the HIV peptide. Flu- and EBV-derived peptides were used as controls.
The assay for detection of peptide-specific CTLs in PBMCs was performed according to a previously reported method. In brief, PBMCs (1 X 10^5 cells/well) were incubated with […] of each peptide in a U-bottom-type 96-well microculture plate (Nunc, Roskilde, Denmark) at a volume of 200 μl of culture medium. The culture medium consisted of 45% RPMI-1640, 45% AIM-V medium (Gibco BRL), 10% FCS, 100 U/ml of IL-2, and 0.1 mM MEM nonessential amino acid solution (Gibco, BRL). […] After an 18-hr incubation period, the supernatants were collected, and the level of IFN-γ was determined by ELISA (limit of sensitivity: 10 pg/ml). […]
It was then determined whether PBMCs stimulated by either the PTHrP 36-44 or the PTHrP 102-111 peptide could induce prostate cancer-reactive CTLs from HLA-A24^+ healthy donors and prostate cancer patients. […] The levels of IFN-γ in the supernatants were then determined by ELISA.

Sequence	IFN-γ production of peptide-stimulated PBMCs in response to peptide-pulsed vs HIV peptide-pulsed C1R-A24 cells
RAVSEHQLL [PTHrP 36-44]	higher levels of IFN-γ
RYLTQETNKV [PTHrP 102-111]	higher levels of IFN-γ
